{"source": "patent US20260226102A1", "about": "(priority 2022, published 2026)", "assay": "general procedure: hybrid (solid and solution phase) peptide synthesis; glycine pre-loaded CTC resin; Oxyma/DIC", "settings": "coupling step", "data": [{"substance": "Fmoc-G-P-S-S-G-A-P-P-S-CONH2", "values": [{"measurement": "step yield", "result": 70, "unit": "% yield"}]}]}
